Results reported in article PMC9147192, “Small Molecule Arranged Thermal Proximity Coaggregation (smarTPCA)—A Novel Approach to Characterize Protein–Protein Interactions in Living Cells by Similar Isothermal Dose–Responses” (International Journal of Molecular Sciences, 2022).
Results are given in words; binding and its absence hold for the method and conditions named. In cells and extracts the contact can be indirect. Some entries that bind do so weakly or less than the wild type.

Sequences of proteins named here, by UniProt entry; tags and fusion partners are left off.
UniProt Q16539: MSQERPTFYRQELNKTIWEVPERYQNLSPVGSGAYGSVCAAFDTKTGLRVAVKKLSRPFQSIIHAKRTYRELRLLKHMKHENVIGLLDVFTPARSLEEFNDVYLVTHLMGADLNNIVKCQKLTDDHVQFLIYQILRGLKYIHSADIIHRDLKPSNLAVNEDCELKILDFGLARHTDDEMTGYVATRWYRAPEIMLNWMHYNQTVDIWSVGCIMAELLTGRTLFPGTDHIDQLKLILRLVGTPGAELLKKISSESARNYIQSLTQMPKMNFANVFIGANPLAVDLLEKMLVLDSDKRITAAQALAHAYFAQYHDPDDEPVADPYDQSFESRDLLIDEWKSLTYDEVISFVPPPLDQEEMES
UniProt Q16644: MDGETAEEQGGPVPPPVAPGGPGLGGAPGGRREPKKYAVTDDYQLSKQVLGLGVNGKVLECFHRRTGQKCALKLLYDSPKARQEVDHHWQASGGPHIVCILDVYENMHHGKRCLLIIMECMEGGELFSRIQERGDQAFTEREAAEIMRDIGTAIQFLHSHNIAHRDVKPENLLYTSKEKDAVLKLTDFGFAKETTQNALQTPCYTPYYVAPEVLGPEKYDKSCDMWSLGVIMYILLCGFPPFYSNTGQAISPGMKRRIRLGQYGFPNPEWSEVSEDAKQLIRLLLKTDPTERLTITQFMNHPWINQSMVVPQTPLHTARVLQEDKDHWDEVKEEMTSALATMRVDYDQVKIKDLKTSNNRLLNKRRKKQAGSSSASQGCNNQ

Target: mitogen-activated protein kinase 14 (human (endogenous in HL-60)) (UniProt Q16539)
Test: small molecule arranged thermal proximity coaggregation (smarTPCA) by ITDR-CETSA; living HL-60 cells treated 1 h at 37 °C with 0.3 nM-20 µM AMG-548 or SB203580; […] °C for 3 min; soluble fraction read by immunoblot; similarity of dose-responses to that of MAPK14

Substance: MAP kinase-activated protein kinase 3 (from UniProt Q16644 1-382)
- binding: binds
